Measurements reported in PubChem BioAssay AID686938 (Drosophila RNAi Screening Center, 2013).

Screen: 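Fly genes required for calcium entry once internal stores are emptied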 (primary screen)
Cells: Drosophila S2R+ cells
Reagent: long dsRNA against Drosophila genes, about 0.25 µg dsRNA per well, roughly 10,000 cells
Duration: 5 days of knock-down before the calcium assay
Treatment: thapsigargin (SERCA pump blocker) to empty calcium stores; entry signal taken 4 min after adding it
Measurement: 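Duplicate raw fluo-4 intensities per well from a plate reader, at rest and four minutes after thapsigargin emptied calcium stores; entry-to-rest ratio filled for only some wells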
Reading the numbers: calcium entry signal: higher = stronger calcium signal after store depletion; resting calcium signal: higher = higher resting calcium signal
Units: calcium entry signal in fluorescence units; resting calcium signal in fluorescence units
Call rule: 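Called when the plate z-score of the entry-to-rest ratio, mean of duplicates, falls below −3; wells with low overall dye signal (Fmax z below −2) or more than five off-targets excluded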
Meaning of the calls: active = strongly reduced calcium entry; inactive = no strong reduction
The deposit covers about 23,000 reagents; this is a random part of those that have a named target and a result. Of all reagents, 75 (0.33%) are marked active. 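Raw plate signals without normalisation; calls rest on plate z-scores that were not deposited; ratio present for only 364 wells.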 A plus sign joins genes that one reagent is predicted to hit. Not given: the dose of the treatment.

With Cp36 [DRSC18452], what was measured?
calcium entry signal, replicate 1: 2.95e7; calcium entry signal, replicate 2: 4.06e7; resting calcium signal, replicate 1: 1.66e7; resting calcium signal, replicate 2: 1.95e7; call: inactive

With CG8112 [DRSC16377], what does the deposit list?
calcium entry signal, replicate 1: 4.83e7; calcium entry signal, replicate 2: 3.95e7; resting calcium signal, replicate 1: 2.21e7; resting calcium signal, replicate 2: 1.91e7; call: inactive

What did the screen give for 7SLRNA:CR42652 + 7SLRNA:CR32864 [DRSC22968]?
calcium entry signal, replicate 1: 3.34e7; calcium entry signal, replicate 2: 2.78e7; resting calcium signal, replicate 1: 1.76e7; resting calcium signal, replicate 2: 1.54e7; call: inactive

How did the screen score MetRS-m [DRSC16443]?
calcium entry signal, replicate 1: 3.16e7; calcium entry signal, replicate 2: 3.65e7; resting calcium signal, replicate 1: 1.35e7; resting calcium signal, replicate 2: 1.62e7; call: inactive

For MetRS-m [DRSC16515], how do the results read?
calcium entry signal, replicate 1: 2.16e7; calcium entry signal, replicate 2: 2.71e7; resting calcium signal, replicate 1: 1.08e7; resting calcium signal, replicate 2: 4.68e7; call: inactive

What is on record for Ip6k [DRSC04054]?
calcium entry signal, replicate 1: 2.95e7; resting calcium signal, replicate 1: 1.58e7; call: inactive

What did the screen give for CG13051 [DRSC09932]?
calcium entry signal, replicate 1: 3.29e7; calcium entry signal, replicate 2: 4.48e7; resting calcium signal, replicate 1: 1.68e7; resting calcium signal, replicate 2: 1.77e7; call: inactive

What is on record for CG13744 [DRSC06415]?
calcium entry signal, replicate 1: 4.23e7; calcium entry signal, replicate 2: 3.74e7; resting calcium signal, replicate 1: 1.90e7; resting calcium signal, replicate 2: 1.54e7; call: inactive

Laid out differently: 2 of the entries above
Target gene | amplicon | calcium entry signal, replicate 1 | calcium entry signal, replicate 2 | resting calcium signal, replicate 1 | resting calcium signal, replicate 2 | call
CG8112 | DRSC16377 | 4.83e7 | 3.95e7 | 2.21e7 | 1.91e7 | inactive
7SLRNA:CR42652 + 7SLRNA:CR32864 | DRSC22968 | 3.34e7 | 2.78e7 | 1.76e7 | 1.54e7 | inactive

Continued.
Which result is listed for CG7706 [DRSC16295]?
calcium entry signal, replicate 1: 2.56e7; calcium entry signal, replicate 2: 2.76e7; resting calcium signal, replicate 1: 1.23e7; resting calcium signal, replicate 2: 1.14e7; call: inactive

What did the screen give for CG32706 + CG6999 [DRSC18412]?
calcium entry signal, replicate 1: 2.26e7; calcium entry signal, replicate 2: 4.10e7; resting calcium signal, replicate 1: 1.17e7; resting calcium signal, replicate 2: 1.80e7; call: inactive

For CkIIalpha-i3 [DRSC08651], what was measured?
calcium entry signal, replicate 1: 4.10e7; calcium entry signal, replicate 2: 3.74e7; resting calcium signal, replicate 1: 1.99e7; resting calcium signal, replicate 2: 1.75e7; call: inactive

For CG4438 [DRSC02746], how do the results read?
calcium entry signal, replicate 1: 3.18e7; calcium entry signal, replicate 2: 5.28e7; resting calcium signal, replicate 1: 1.65e7; resting calcium signal, replicate 2: 2.27e7; call: inactive

With sigmar [DRSC04449], what was measured?
calcium entry signal, replicate 1: 3.90e7; resting calcium signal, replicate 1: 2.06e7; call: inactive

What did the screen give for bchs [DRSC03126]?
calcium entry signal, replicate 1: 3.36e7; calcium entry signal, replicate 2: 2.99e7; resting calcium signal, replicate 1: 1.56e7; resting calcium signal, replicate 2: 1.47e7; call: inactive

How did the screen score Tcs5 [DRSC09774]?
calcium entry signal, replicate 1: 2.94e7; calcium entry signal, replicate 2: 4.95e7; resting calcium signal, replicate 1: 1.62e7; resting calcium signal, replicate 2: 2.62e7; call: inactive

With Tim17a1 [DRSC14184], what was measured?
calcium entry signal, replicate 1: 3.16e7; calcium entry signal, replicate 2: 3.04e7; resting calcium signal, replicate 1: 1.57e7; resting calcium signal, replicate 2: 1.65e7; call: inactive

With CG14304 [DRSC14783], what does the deposit list?
calcium entry signal, replicate 1: 4.72e7; calcium entry signal, replicate 2: 4.61e7; resting calcium signal, replicate 1: 6.19e7; resting calcium signal, replicate 2: 2.27e7; call: inactive

For CG8929 [DRSC07298], what was measured?
calcium entry signal, replicate 1: 3.59e7; calcium entry signal, replicate 2: 3.34e7; resting calcium signal, replicate 1: 1.58e7; resting calcium signal, replicate 2: 1.62e7; call: inactive

For CG8929 [DRSC22847], what was measured?
calcium entry signal, replicate 1: 2.61e7; calcium entry signal, replicate 2: 4.07e7; resting calcium signal, replicate 1: 1.39e7; resting calcium signal, replicate 2: 1.60e7; call: inactive

For Osi20 [DRSC12568], what was measured?
calcium entry signal, replicate 1: 3.34e7; calcium entry signal, replicate 2: 3.09e7; resting calcium signal, replicate 1: 1.55e7; resting calcium signal, replicate 2: 1.55e7; call: inactive

With CG42662 + CG30080 [DRSC05571], what was measured?
calcium entry signal, replicate 1: 4.41e7; calcium entry signal, replicate 2: 4.10e7; resting calcium signal, replicate 1: 2.09e7; resting calcium signal, replicate 2: 1.68e7; call: inactive
